Measured values as given in the supplement of paper PMC12764529.
± gives the half width of the 95% confidence interval. The two proteases of the assay disagree for many of these sequences.

Tests used:
[1] = folding stability dG unfold from trypsin proteolysis; higher = more stable
Experimental: (§1)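 Folding stability of de novo designed mini-proteins (<80 aa, no Cys; designed by TrROS, TrMRF, ProteinMPNN and the joint model) was measured by cDNA display proteolysis with trypsin and chymotrypsin. Each protease was used at 11 concentrations in a threefold dilution series plus a no-protease condition. K50 was inferred by Bayesian fitting of sequencing counts, and dG unfold was derived against a sequence-predicted unfolded-state K50 (Tsuboyama et al. method). Sequences shown include variable-length N-terminal GS-type padding (SAGGSAGG...) inside a display construct carrying a PA tag. Rows were kept only if the AF2 dimer inter-PAE was >15, to exclude likely homo-oligomers.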

[2] = folding stability dG unfold from chymotrypsin proteolysis; higher = more stable
Experimental: as §1

[3] = folding stability dG unfold (combined trypsin and chymotrypsin); higher = more stable
Experimental: as §1

Row | Sequence | folding stability dG unfold [1] [kJ/mol] | folding stability dG unfold [2] [kJ/mol] | folding stability dG unfold [3] [kJ/mol]
1 | SAMTAEVTFTLPDGTPVRRVFEVPPGDPEAVLERIRAELRAEYPDVPLDWVARLLERSPEGRLLIEVVVSAG [r14_622_JUSTAS] | 10 ± 0.259 | 18.59 ± 0.159 | 16.5 ± 0.36
2 | SAGGWFTFIIPFPDYLFIFTIEWRWHWDPDTGMLNMDLTISIQIIPLPPPPPPPKPEKDPDGEPKYKSAGGS [r8_46_TrROS] | 11.4 ± 1.46 | 22 ± 0.879 | 20.9 ± 2.05
3 | SMKVYKTKDGKLVAKPKTLTLEITVPPNTTAEEIAKKIADLLKKLGIKEVKVTVEVNKENKEVKITIEIKSA [r9_1124_TrROS_Hall] | 5.16 ± 1 | 20.5 ± 1.67 | –
4 | SAGKTIWIPPGMPREQAEDIARELAQENGGEDVEVERHPDNPNMVKVEVKNPNNGKDIEIHIMPPEQLESAG [r5_912_TrROS] | 13.7 ± 1.51 | -0.000592 ± 0.837 | 2.33 ± 2.76
5 | IEELKKALEEAGYEVEIEKVKVKSEEEAKKLAEELEKKTGYKTIVIKKNKNGKEVLVIKIRKKKLPKGVKPS [r1_179_TrROS_Hall] | 3.52 ± 0.502 | 15.7 ± 0.669 | 13 ± 2.3
6 | SAGGSAGGSGMPPVVTISFSYDPSTNVYTATITYPSGPTYTITFPTSSKSEAEKKAKELVEKKSAGGSAGGS [r12_339_JUSTAS] | 5.78 ± 0.46 | 15.8 ± 0.247 | 13.7 ± 0.711
7 | SAGGSAGGPLELTLVGISPELAEKLAKLLTELGIPVKIEVVPAPPVPPISPEELEKNPELAKKRSAGGSAGG [r6_804_TrMRF] | -2.31 ± 1.17 | 7.2 ± 0.192 | 4.87 ± 0.586
8 | SFFKNFKIDWKENPNGNFVITFRVGGQPIFTIIFKVVVPPPPVEVPVPDPNGEPRKVRYDPKNGKPETEPSA [r9_343_TrROS] | 5.55 ± 0.155 | 16.9 ± 0.544 | 14.2 ± 0.962
9 | SPDSPEFKKFLENLEEIEAEIEEIPEHGVVIEKIKLKFKDKELEVVIVTFFDKDGKIIGSLAFINGKLIPKS [r1_274_TrMRF] | 7.7 ± 0.46 | 20.7 ± 1 | 18.1 ± 1.21
10 | SALEVKVEYDPETKTVKVEVTFHFPTVTVKVTFTVTLDGDTLTLSPSVEVLPPVPPLGPELAAKLAEAASAG [r14_930_TrMRF] | 6.95 ± 0.297 | 17 ± 0.372 | 15.2 ± 0.502
11 | SAGMMVKITEVKFSESPLIRKNGSSLSTEKVYTATFTFQDEKGNLTPVKATFSSREELEKYVEEILKKSSAG [r14_36_JUSTAS] | 2.82 ± 0.188 | 11.5 ± 0.138 | 9.63 ± 0.272
12 | SAGIEEALEAVAAELGLEITEIEVKKLPDGSLVAKFKFRKDDEEYEVTATYNPATGTLTIDITPVPVKRSAG [r14_784_JUSTAS] | 3.93 ± 0.305 | 18.5 ± 0.368 | 16.4 ± 0.418
13 | SAGGSAEAEALAAEARAAGWEAEVRVERLPGPVTRITVTVRAPGGRTVTLELERRPEGWRLLAEEVEASAGG [r13_203_JUSTAS] | 6.44 ± 0.209 | 16 ± 0.372 | 13.8 ± 0.586
14 | SAGGDYVTVSIWIPPENISPEEIKALLQELFPNAEVEYERGPDGLYRISITVPIPPMPPPPPPKDGKSAGGS [r16_535_TrROS] | 5.8 ± 0.31 | 15.7 ± 0.46 | 13.9 ± 1.26
15 | SAKKIPAKDIKIKIKIKLPNGEIVEAEIKEVKFDKKTKKLYFYVEIRIVDKKTKKVYTFKAKIIEIEKVSAG [r14_825_TrROS_Hall] | 7.41 ± 0.36 | 16.2 ± 0.314 | 14 ± 1.76
16 | SAGGSAGGSAGGPSLEDLANVPPDVRALVVISGRHPDGGPDEPRLVLFDPATGKVYVFGSAGGSAGGSAGGS [r10_394_TrMRF] | -1.43 ± 0.46 | 9.63 ± 0.305 | 7.26 ± 0.351
17 | SAGGSAGGSEPERTLTLEVRLEVERLPDGTLRVRAEVTLPNGERLEIEATLRPDGRLELRIRPSAGGSAGGS [r12_317_TrROS_Hall] | 4.39 ± 0.238 | 16.6 ± 0.544 | 15.1 ± 0.795
18 | SAGNFEITYNKETNTLTIKYNGKTFTFTLTVTVTVTTTVTLENGETKTVTKTVTKTITLTVEELKKLLKSAG [r5_234_TrROS_Hall] | 9.77 ± 0.879 | 21.7 ± 0.711 | 19.3 ± 1.76

Row | Sequence | folding stability dG unfold [1] [kJ/mol] | folding stability dG unfold [2] [kJ/mol] | folding stability dG unfold [3] [kJ/mol]
19 | SAGGSAGGSAGKVYRFDSLEEALKALKEKGYEIVSIEVVEVDGKKYVKVKIEIKPKKEKKSAGGSAGGSAGG [r11_141_TrROS_Hall] | 4.3 ± 0.31 | 15.6 ± 0.92 | 13.2 ± 0.962
20 | SAGGSAGGSAEKEFEVEIVEVKYNKETNEVEVLIKNKKTGKYYKITFNKNGELKIEEVELKSAGGSAGGSAG [r3_294_TrROS_Hall] | 12.3 ± 0.837 | 22.4 ± 0.92 | 22.2 ± 1.72
21 | SAGGMPGFEVIEEIEIEVDGKTYKITVLRNKETNEYIIEIEDEETGEKKTIVVKPGEKIEISAEELKSAGGS [r16_768_TrROS_Hall] | 7.63 ± 0.46 | 17.3 ± 0.201 | 16.2 ± 0.628
22 | SAGGAEITINVTVTYDPETNVLYIEMTATVYDPETKEFYEVKVRLKLVNGKLYIVSVEIRKLPPPEKSAGGS [r8_384_TrROS_Hall] | 11.7 ± 0.414 | 25.2 ± 1.34 | > 25.1
23 | SAGIKELAEKLAEELKKKGYEVEVEVDEETGTITVTVKKDGELYEIEIKIDKKTNKVEVKIKPLPKKKSAGG [r19_2_TrROS_Hall] | 0.824 ± 0.502 | 9.68 ± 0.502 | 7.86 ± 1.05
24 | SAGGSAGGSAGGSMKITEDPAKGTVTISSTEDNKVVVIPASTLTPEQIRAEAKAAGIKISAGGSAGGSAGGS [r4_49_JUSTAS] | -3.46 ± 0.669 | 5.04 ± 0.142 | 3.07 ± 0.46
25 | SAGGSMKLPEGWKVVEIKIEKNEDGTETITVLVKDEETGEYYKFKYKIKDGKIELVEVEKIPKEELSAGGSA [r2_371_TrROS_Hall] | 16.1 ± 1.8 | 25.2 ± 1.51 | 24.2 ± 2.43
26 | SAGGKKKTIKITSVEKVKNKDGSIYYKVKIKYEDGTEKTFVFKSLEEAKKALEALPNVKKVEIEPLPSAGGS [r16_757_TrROS_Hall] | 8.13 ± 0.297 | 18.4 ± 0.268 | 16.5 ± 0.711
27 | SEVVRLPDDSVVFLRRFGNVTLALTLRREGDRLYLFLSVSHFDPDNPSVHTTSRRLFELPPPVPPPPELLSA [r9_83_TrMRF] | 10.7 ± 0.586 | 20.9 ± 0.586 | 17.1 ± 2.3
28 | SAGGKIKKIELLPKDAKPGAKIIITFEDGSKYEIEAELVKLENGEYYLKLKIKVNGKEIELILKIKPSAGGS [r8_360_TrROS_Hall] | 9.58 ± 1.59 | 22.1 ± 1.21 | –
29 | SAGMKIEIKVEYDEETGTLTVEVKVTLPDGRELTVRITITRTPDKLTITVEVEEGMTVEEILKKLLEELSAG [r5_478_TrROS_Hall] | 11.5 ± 0.711 | – | > 25.1
30 | NGEIVEVYPITIPLPGYQIEIWIYRMPDDGHYWVTIEIFPYDPNGKPKNPQKITYPFPSLDDIKDFLKDIIS [r1_288_TrROS] | 12.3 ± 1.3 | – | > 25.1
31 | SAGGSAGGSSMPLKVTVKDPNNGKEYEATVTETLPDGTVLLTVTTPDGAVKEVTEITDYEVVGSAGGSAGGS [r12_118_JUSTAS] | 4.7 ± 0.276 | – | 1.52 ± 0.377
32 | SAGGSAGGSASSSVTITNRVTNPDTGLRYITIPSKGERVTLSPDESATIPVPPDAPVSVLGSSAGGSAGGSA [r18_329_JUSTAS] | -2.9 ± 1 | – | < -4.18
33 | SAGGSAGGSAGGMPVVVINTPSEEEAEKEKAKLEEDPEYKDGPINFIYIPPGTLPENVPLSAGGSAGGSAGG [r7_976_JUSTAS] | 1.2 ± 0.301 | – | < -4.18
34 | SAGGSAGGSAMIVVTLDDPEEAREAVRARFGPEVEITPLETTTVGDRVFTKIAVRVPPELASAGGSAGGSAG [r3_87_JUSTAS] | -1.47 ± 0.795 | – | -1.65 ± 1
35 | SAGGSAGGSASPDSVPVLVVESTYTTASVSTTPLGKPEYDTDSVVLKEEEIYVPPGELEELSAGGSAGGSAG [r3_121_JUSTAS] | 4.25 ± 0.36 | – | 0.83 ± 0.586

Looked up above:
For folding stability dG unfold [3] [kJ/mol], SAGGKKKTIKITSVEKVKNKDGSIYYKVKIKYEDGTEKTFVFKSLEEAKKALEALPNVKKVEIEPLPSAGGS [r16_757_TrROS_Hall] reads 16.5 ± 0.711
For folding stability dG unfold [3] [kJ/mol], SAGGSAGGSSMPLKVTVKDPNNGKEYEATVTETLPDGTVLLTVTTPDGAVKEVTEITDYEVVGSAGGSAGGS [r12_118_JUSTAS] reads 1.52 ± 0.377
